Reference: article PMC6486830
Results are given in words; binding and its absence hold for the method and conditions named. Binding seen in cells or lysates may run through a third protein. Here binding means that the protein was enriched with, or labelled near, the bait; the list need not be complete.

The chains behind the UniProt entries cited, without tags or fusion partners.
UniProt Q61103: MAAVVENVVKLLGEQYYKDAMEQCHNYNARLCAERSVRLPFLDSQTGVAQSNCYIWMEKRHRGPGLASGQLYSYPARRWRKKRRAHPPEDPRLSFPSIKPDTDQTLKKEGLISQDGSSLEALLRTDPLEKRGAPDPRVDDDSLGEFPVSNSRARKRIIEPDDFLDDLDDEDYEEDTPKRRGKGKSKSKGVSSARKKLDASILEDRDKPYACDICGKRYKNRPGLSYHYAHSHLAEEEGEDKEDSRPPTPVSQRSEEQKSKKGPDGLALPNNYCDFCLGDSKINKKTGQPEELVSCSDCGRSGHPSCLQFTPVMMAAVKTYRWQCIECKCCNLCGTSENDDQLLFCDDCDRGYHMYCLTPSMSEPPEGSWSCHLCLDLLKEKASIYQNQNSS
UniProt A2BH40: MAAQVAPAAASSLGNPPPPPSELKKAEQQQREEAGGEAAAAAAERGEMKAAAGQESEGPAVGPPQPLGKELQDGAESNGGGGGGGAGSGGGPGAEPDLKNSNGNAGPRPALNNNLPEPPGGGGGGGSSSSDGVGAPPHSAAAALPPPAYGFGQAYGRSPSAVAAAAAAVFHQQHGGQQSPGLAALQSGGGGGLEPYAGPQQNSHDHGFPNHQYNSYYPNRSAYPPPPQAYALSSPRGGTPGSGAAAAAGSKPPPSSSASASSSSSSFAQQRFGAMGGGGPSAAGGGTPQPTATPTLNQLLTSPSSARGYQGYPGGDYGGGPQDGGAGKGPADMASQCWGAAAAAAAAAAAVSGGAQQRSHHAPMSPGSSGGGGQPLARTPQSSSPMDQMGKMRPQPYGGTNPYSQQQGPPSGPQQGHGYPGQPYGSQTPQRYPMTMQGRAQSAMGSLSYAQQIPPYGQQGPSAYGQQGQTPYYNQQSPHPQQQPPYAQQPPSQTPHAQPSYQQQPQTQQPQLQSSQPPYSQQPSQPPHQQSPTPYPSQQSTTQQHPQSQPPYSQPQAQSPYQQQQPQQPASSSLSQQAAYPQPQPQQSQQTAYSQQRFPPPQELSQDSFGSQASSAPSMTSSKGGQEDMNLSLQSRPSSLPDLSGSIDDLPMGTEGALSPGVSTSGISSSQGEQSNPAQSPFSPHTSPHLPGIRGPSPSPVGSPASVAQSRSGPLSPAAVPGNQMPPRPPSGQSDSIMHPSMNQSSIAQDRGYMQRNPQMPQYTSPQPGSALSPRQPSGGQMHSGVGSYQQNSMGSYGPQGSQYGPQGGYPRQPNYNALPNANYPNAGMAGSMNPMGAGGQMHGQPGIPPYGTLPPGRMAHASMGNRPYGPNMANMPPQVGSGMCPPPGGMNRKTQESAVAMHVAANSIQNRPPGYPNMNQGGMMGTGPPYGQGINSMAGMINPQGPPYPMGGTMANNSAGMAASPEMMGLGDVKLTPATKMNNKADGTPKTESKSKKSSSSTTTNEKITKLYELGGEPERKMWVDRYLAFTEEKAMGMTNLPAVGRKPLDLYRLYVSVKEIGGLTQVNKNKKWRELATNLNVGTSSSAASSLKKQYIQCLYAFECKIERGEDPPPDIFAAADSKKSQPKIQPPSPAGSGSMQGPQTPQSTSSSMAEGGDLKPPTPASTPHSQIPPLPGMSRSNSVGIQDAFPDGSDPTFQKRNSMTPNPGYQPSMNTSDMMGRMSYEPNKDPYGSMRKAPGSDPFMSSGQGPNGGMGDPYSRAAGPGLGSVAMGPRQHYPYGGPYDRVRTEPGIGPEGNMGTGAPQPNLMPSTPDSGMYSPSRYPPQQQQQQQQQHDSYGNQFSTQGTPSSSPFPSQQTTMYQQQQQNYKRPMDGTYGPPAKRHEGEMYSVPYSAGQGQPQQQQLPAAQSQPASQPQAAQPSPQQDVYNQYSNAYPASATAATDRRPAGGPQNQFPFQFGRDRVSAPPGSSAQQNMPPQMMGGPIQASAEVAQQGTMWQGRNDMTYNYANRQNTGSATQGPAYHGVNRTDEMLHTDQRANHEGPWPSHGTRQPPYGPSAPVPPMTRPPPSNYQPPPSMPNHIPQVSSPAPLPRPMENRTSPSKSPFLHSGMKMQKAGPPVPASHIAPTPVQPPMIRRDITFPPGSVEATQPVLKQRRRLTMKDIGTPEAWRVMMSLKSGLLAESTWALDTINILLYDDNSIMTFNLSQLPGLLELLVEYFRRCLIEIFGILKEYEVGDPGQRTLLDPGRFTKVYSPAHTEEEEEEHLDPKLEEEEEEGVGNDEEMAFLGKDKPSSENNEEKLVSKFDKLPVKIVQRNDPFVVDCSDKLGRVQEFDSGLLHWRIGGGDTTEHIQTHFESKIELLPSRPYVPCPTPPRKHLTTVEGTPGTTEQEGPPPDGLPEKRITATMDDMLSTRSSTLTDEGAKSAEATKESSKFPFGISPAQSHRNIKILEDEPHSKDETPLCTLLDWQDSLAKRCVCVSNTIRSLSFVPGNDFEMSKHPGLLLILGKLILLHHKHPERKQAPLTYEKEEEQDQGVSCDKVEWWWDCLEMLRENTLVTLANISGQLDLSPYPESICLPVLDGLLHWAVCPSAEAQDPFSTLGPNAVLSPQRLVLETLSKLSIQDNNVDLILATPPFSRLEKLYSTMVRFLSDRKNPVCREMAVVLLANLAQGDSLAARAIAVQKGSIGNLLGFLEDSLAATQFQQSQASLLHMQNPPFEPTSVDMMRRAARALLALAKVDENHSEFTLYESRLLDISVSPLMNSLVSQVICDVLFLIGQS
UniProt O54941: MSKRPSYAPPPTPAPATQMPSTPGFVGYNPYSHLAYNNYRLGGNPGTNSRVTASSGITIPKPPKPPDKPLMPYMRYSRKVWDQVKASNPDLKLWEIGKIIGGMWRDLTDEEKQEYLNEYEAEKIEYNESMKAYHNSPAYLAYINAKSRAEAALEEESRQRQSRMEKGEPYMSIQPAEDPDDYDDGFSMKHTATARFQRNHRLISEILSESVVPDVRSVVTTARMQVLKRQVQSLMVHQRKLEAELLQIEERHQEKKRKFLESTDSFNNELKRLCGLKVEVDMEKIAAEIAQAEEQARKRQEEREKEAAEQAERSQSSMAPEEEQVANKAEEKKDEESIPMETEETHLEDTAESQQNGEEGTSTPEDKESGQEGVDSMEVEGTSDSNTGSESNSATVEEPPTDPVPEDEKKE
UniProt Q3TKT4: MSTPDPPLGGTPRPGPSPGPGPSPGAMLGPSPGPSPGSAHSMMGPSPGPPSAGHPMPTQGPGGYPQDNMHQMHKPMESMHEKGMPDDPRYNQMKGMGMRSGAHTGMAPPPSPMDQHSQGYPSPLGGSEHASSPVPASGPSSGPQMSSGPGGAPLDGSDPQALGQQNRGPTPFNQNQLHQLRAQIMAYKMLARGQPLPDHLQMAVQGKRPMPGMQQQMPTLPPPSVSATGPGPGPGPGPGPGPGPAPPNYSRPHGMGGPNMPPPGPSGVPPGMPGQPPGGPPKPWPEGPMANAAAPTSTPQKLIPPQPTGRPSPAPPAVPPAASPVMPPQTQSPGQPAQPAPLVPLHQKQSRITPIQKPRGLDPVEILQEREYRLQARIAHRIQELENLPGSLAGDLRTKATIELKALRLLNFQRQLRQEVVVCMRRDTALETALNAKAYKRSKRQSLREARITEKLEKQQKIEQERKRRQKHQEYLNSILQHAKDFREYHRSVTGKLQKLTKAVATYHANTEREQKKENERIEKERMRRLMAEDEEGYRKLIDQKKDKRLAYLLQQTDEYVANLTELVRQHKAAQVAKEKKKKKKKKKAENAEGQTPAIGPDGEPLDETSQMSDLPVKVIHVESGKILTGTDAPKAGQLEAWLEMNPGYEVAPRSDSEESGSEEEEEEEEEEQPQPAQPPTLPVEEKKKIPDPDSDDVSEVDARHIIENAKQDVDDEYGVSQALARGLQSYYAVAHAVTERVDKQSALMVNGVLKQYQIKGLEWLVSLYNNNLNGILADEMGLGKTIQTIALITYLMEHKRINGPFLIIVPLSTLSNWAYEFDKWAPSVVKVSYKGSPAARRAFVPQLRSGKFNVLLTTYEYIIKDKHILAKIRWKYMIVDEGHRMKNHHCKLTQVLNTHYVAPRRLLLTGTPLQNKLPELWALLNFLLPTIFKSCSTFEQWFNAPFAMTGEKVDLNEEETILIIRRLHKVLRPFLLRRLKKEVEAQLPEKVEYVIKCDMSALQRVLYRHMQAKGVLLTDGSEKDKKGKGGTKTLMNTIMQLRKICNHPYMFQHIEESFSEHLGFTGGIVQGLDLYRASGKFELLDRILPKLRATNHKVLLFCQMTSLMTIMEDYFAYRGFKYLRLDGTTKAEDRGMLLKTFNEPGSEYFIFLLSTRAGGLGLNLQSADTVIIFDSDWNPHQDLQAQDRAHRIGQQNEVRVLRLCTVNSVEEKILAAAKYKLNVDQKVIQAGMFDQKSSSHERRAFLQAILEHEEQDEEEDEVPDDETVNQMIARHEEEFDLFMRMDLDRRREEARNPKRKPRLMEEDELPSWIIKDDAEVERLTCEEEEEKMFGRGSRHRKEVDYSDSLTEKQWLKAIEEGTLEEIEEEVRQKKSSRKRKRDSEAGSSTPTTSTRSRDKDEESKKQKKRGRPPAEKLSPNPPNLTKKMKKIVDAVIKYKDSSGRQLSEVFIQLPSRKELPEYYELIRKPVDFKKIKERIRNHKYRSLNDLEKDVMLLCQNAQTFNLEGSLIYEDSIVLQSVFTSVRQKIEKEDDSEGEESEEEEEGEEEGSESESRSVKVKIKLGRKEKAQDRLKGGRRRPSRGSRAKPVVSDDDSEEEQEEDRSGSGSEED

Target: DPF2-FTAP (mouse (endogenous allele in E14 ESCs)) (UniProt Q61103)
Assay: affinity purification with mass spectrometry; ESCs expressing DPF2-FTAP crosslinked with 1% formaldehyde for 10 min; high salt lysis buffer (450 mM NaCl, 0.2% Nonidet P-40), benzonase; anti-FLAG M2 Dynal beads in 150 mM NaCl, 0.1% NP-40, 90 min at 4°C; washes with RIPA and RIPA with 450 mM NaCl; elution with 3X FLAG peptide; control beta-gal-FTAP ESC line

Row | binding | Substance
1 | binds | ARID1A (from UniProt A2BH40 1-2283)
2 | binds | BAF57 [SMARCE1] (from UniProt O54941 1-411)
3 | binds | BRG1 [SMARCA4] (from UniProt Q3TKT4 1-1613)
